Measured values published in article PMC12519263 (ACS Pharmacology & Translational Science, 2025).

Tested on: Itgb6, Col1a1, Col3a1, Fn1
Assay: Gene expression by qPCR on lung tissues of BLM mice (Study #1)
Format: in vivo, C57Bl/6 mice
Conditions: BLM vs Saline, lung tissue

Bleomycin hydrochloride [BLM]
Log2FC COL1A1 (14d): 3.5
Log2FC COL3A1 (14d): 2.7
Log2FC FN1 (14d): 3.3
Log2FC ITGB6 (14d): 0.92
Log2FC COL1A1 (21d): 3.2
Log2FC COL3A1 (21d): 2.6
Log2FC FN1 (21d): 3.6
Log2FC ITGB6 (21d): 0.98
